Laboratory results from article PMC5787919, “A feedback regulatory model for RifQ-mediated repression of rifamycin export in Amycolatopsis mediterranei” (Microbial Cell Factories, 2018).
Construct, isoform or probe ends are uncertain for at least one entry. For some of these results: A weaker result is weaker than the reference pair of the same experiment. For some of these results: Protein sequences can lack the tags named with them.

Legend:
[1] = molecular target: T1, RifQ (Amycolatopsis mediterranei S699) (UniProt O52558); assay: EMSA; details: all probe shifted at 0.2 uM RifQ, 8 nM probe, 100 ng/uL salmon sperm DNA; EMSA: 8 nM probe, 20 uL, 37 C 30 min, 100 ng/uL sheared salmon sperm DNA, 5% native PAGE in 0.5x TBE; recombinant protein; residues 1-242; label: 5'-FAM; probe letters rebuilt from the primers and the genome; part of a longer molecule
T1 sequence (looked up): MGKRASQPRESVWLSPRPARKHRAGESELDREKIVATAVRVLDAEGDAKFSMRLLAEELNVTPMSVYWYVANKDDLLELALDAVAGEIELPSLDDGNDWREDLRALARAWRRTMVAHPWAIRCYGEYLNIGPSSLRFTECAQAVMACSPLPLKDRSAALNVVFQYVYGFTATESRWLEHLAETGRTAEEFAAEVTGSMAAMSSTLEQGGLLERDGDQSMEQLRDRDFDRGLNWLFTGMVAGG

[2] = molecular target: T1, RifQ (Amycolatopsis mediterranei S699); assay: DNase I footprinting; details: footprinting: 40 nM probe, 40 uL, 37 C 30 min, DNase I at 25 C 1 min, binding buffer, salt and pH not stated, recombinant protein, residues 1-242, label: 5'-FAM, probe letters rebuilt from the primers and the genome, part of a longer molecule

Sequence: CGTCGAGCTGCATCTGTTCCCGGGCACGTTTCATGGCTCGGCCCGGTGCACGGACGCGGCGATCAGCCGGCGTGAGCAGGAGGAGCAGTTCGCGGTCCTGCGGCACGTGACCGGCCGCTGAAGCCTGGCGCCGGGGTGGCTCGCCGGATCGGCGGCGGCCGCGCGCCCGGCGGCGGCTGCCAGGTGCGGTCCCGTTCGCCGTTCCGCCCGGTGACCGGCCGCTGAGCCACGCCTGGATGGCCGCGCGCCTGGCGACCGCCCCCAGCAGCGTGGTCACCTCCGGCGTCGTCATCGCTGGTCACCGCAGGCGCCGAAACCCTCCCGACCCCCGCCCTTGCGCTCCGCCCACCGACCCTTATATGGTGTATAAGAACTTGTCGGACGCAATTCGCTACCGGGGGAGTCCTCTTGCGCGAAATGCACGCCACGGCGGCGGTGACCGAAACCCGGAATCCACGGCGCTGGCTGATTCTGGCCGTCATCTCGC (double strand) [rifP promoter probe]
- binding result [1]: binds
- binding result ([2]; 40 nM probe, 100 ng/uL salmon sperm DNA): binds
- binding result ([2]; 0.6 mM rifamycin B): binds more weakly
- binding result ([2]; rifamycin SV up to 20 mM): binds
